For 42 sequences, binding signal results are on record in paper PMC7819943, “Rice protein-binding microarrays: a tool to detect cis-acting elements near promoter regions in rice”.

Sequences of proteins named here, by UniProt entry; tags and fusion partners are left off.
UniProt Q0JBA9, entry or part of it: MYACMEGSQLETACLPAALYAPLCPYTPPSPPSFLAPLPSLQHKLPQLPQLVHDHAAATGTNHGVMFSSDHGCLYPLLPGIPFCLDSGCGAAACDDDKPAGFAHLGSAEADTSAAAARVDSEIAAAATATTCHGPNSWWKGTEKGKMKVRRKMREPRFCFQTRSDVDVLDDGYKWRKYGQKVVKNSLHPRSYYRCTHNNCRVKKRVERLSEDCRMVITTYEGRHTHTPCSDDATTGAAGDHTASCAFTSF

The other results are listed elsewhere or left out.

In this assay the target is OsWRKY34 (Oryza sativa, UniProt Q0JBA9 1-250). The assay can be described thus: protein-binding microarray (RPBM); PBS, 2% BSA, 51.3 ng/ul salmon testes DNA, 50 uM zinc acetate, 200 nM TF, 25 C, 1 h; high values mean tight binding. The settings on record: protein: recombinant; tags: N-terminal polyhistidine and DsRed monomer fusion (pET32a); label: CyDye5-dUTP incorporated in the synthesized complementary strand; 3' TTTTT single-stranded linker to array surface; dsDNA, one strand shown. A digest of the protocol:
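Binding signal here means per-feature fluorescence intensity in arbitrary units. The values were read on an Axon 4000B scanner after a custom Agilent array, double-stranded by primer extension with Cy5-dUTP, was incubated with 200 nM protein at 25 °C for 1 h in PBS with 2% BSA, salmon testes DNA and 50 µM zinc acetate, then washed. The proteins were transcription factors with an N-terminal polyhistidine tag and DsRed, expressed in E. coli BL21-CodonPlus and purified on Ni–NTA.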
Consider “TGTTGGCTGTAACATAGAAAATTTTTCAGCATGTTGCTTTCGGAGTCACCTAGTGCAG”, for which the binding signal is 8580 fluorescence intensity (a.u.).

“TTTTGTGCATTTTCGAAATCATTTTCTCTCCTCCACCGGACGGAGTCACCTAGTGCAG”: the binding signal was 9380 fluorescence intensity (a.u.).

Turning to “CCGTATTTCCTTTGCATATATGCCGTGTTTGGTGTTGGATCGGAGTCACCTAGTGCAG”, the binding signal was 15500 fluorescence intensity (a.u.).

As to “GGTGGCTCATCTTCTAGCCATGGTGGTGTAGTAGTTCGTCCGGAGTCACCTAGTGCAG”, the binding signal is 9990 fluorescence intensity (a.u.).

In the case of “ACCGTCTCCTGGCTCCTGCCCCACCTATGCCCCTCATTTCCGGAGTCACCTAGTGCAG”, the binding signal is 9180 fluorescence intensity (a.u.).

Consider “CACGAAGCCAGTCTAACCGCCATGTGTGGGCTTGTTTGACCGGAGTCACCTAGTGCAG”, for which the binding signal was 8700 fluorescence intensity (a.u.).

As for “TCGTTCTTGGCTGGGTTTGGTTTGGTTTGGTTTGGTCTCGCGGAGTCACCTAGTGCAG”, the binding signal was 45500 fluorescence intensity (a.u.).

Regarding “TTTTTTGAGCCGTATTTTTGCTCTCTTGTTACGTTTTTTTCGGAGTCACCTAGTGCAG”, the binding signal was 17100 fluorescence intensity (a.u.).

Consider “CTCCTTGCTTGTCATCGCCATTGCCATCGTCATCACAGCACGGAGTCACCTAGTGCAG”, for which the binding signal was 13000 fluorescence intensity (a.u.).

As for “TAATGCCAAACACAGCCTAAATCTTCGAGGGTTCTAAAGTCGGAGTCACCTAGTGCAG”, the binding signal was 8170 fluorescence intensity (a.u.).

As for “CGGGGCTGTTGGGGCGGATCCATGTCCGGATCTTCGGCGACGGAGTCACCTAGTGCAG”, the binding signal is 12100 fluorescence intensity (a.u.).

Regarding “ACCACCTTGCGGCATCTCTCTGGGGAACCTCCTCAAATTGCGGAGTCACCTAGTGCAG”, the binding signal was 8200 fluorescence intensity (a.u.).

On to “ACTTATTACTATGCCTGATGCTTGGTCTCTACAAACTATTCGGAGTCACCTAGTGCAG”, for which the binding signal was 13100 fluorescence intensity (a.u.).

Turning to “AAAGAGAGCGCACACGCGGTTGATTTGTTTGACCGACGCGCGGAGTCACCTAGTGCAG”, the binding signal was 8360 fluorescence intensity (a.u.).

Take “TGTCTGGTGTTTGTATGGTCATGGCGGGTTGCAGCAGCTCCGGAGTCACCTAGTGCAG”: the binding signal is 8940 fluorescence intensity (a.u.).

Turning to “TTTCTCATATGTTTGACCATTCGTCTTATTAAAAAAATTTCGGAGTCACCTAGTGCAG”, the binding signal is 8930 fluorescence intensity (a.u.).

With “TGTTCTCCGTGTTGCTTATTTATGTTAGTCAATTACTCTTCGGAGTCACCTAGTGCAG”, the binding signal was 10200 fluorescence intensity (a.u.).

Take “TCACACCAAGGAAACCATCTCCACTGGCGACTCCATCGAGCGGAGTCACCTAGTGCAG”: the binding signal was 8220 fluorescence intensity (a.u.).

Turning to “ACCACGGCAATTTTTTCTCTCCCACGGCCGCCACGCCACTCGGAGTCACCTAGTGCAG”, the binding signal is 10600 fluorescence intensity (a.u.).

Regarding “AAAATTTTTCAGAGTCTGGGTCAAACTTGTTATTCAGTTACGGAGTCACCTAGTGCAG”, the binding signal is 8600 fluorescence intensity (a.u.).

Regarding “TTGATTTGGATGGTGGTGGTTGGATTCAAATGGGCTGATACGGAGTCACCTAGTGCAG”, the binding signal is 8690 fluorescence intensity (a.u.).

“AAGTGTGTTGGTTGGTGGCATTGTGCTGCGCATGGAGGTTCGGAGTCACCTAGTGCAG”: the binding signal was 9580 fluorescence intensity (a.u.).

In the case of “TTTCTATGGAAGTTTAACTTTGTGCTTAGGTCAGCTTTGTCGGAGTCACCTAGTGCAG”, the binding signal is 8480 fluorescence intensity (a.u.).

As for “GTAGTGACTGCTAGGTATTTTCGGATTACAGATCCTTCCACGGAGTCACCTAGTGCAG”, the binding signal is 8290 fluorescence intensity (a.u.).

Take “CATTGTGCGCTCTGGAGAGGCTCCAAACCACCATTGTTCGCGGAGTCACCTAGTGCAG”: the binding signal is 8090 fluorescence intensity (a.u.).

“AGTTCCGCATCTAATTCCTAGCTCATTGTGTTGTTCTTATCGGAGTCACCTAGTGCAG”: the binding signal was 8240 fluorescence intensity (a.u.).

Turning to “TCAATTGTTTGTGCAGTTTGTTTGTTTTTATTTATTTATTCGGAGTCACCTAGTGCAG”, the binding signal is 9540 fluorescence intensity (a.u.).

On to “ATTTGTCAGACTTTTCCTACACATCCTACTCATGACACACCGGAGTCACCTAGTGCAG”, for which the binding signal is 9020 fluorescence intensity (a.u.).

On to “CTAGGCTGATACACTCATACACACGAGTCCCAGACTGTCACGGAGTCACCTAGTGCAG”, for which the binding signal was 9320 fluorescence intensity (a.u.).

For the sequence “TGGAGCATCAGTCATCTTGTTCCTCCACTCCAGTCCATTCCGGAGTCACCTAGTGCAG”, the binding signal was 8090 fluorescence intensity (a.u.).

On to “CTAATCCTCCTGCTCCATCTCGATCCACATAACGATCCACCGGAGTCACCTAGTGCAG”, for which the binding signal was 8470 fluorescence intensity (a.u.).

On to “AAACGGAGGTAGTATAAGAGATTTTGACTTTTTCTTGTACCGGAGTCACCTAGTGCAG”, for which the binding signal is 9110 fluorescence intensity (a.u.).

As to “GGTAGTACTGAAACTTAATTATGGGGTTTTGGATATATGACGGAGTCACCTAGTGCAG”, the binding signal is 10500 fluorescence intensity (a.u.).

On to “TTGTGTTTTTTTTTCTATCTTACTAACCTTCGGATATATACGGAGTCACCTAGTGCAG”, for which the binding signal was 8340 fluorescence intensity (a.u.).

With “AGCTCACTCTAAACCATGTTCGTACCACTACACTTTGTACCGGAGTCACCTAGTGCAG”, the binding signal is 9170 fluorescence intensity (a.u.).

Consider “CTGCACTTTTTGTCTATTTTACTTATGACTACAATATTCCCGGAGTCACCTAGTGCAG”, for which the binding signal was 9080 fluorescence intensity (a.u.).

As to “TGTAGACTTCTATTTTTTGTTCATTTGATGGATGATTGCACGGAGTCACCTAGTGCAG”, the binding signal was 8170 fluorescence intensity (a.u.).

Turning to “CGCTCATGGCTAGTTCTCTTCTGTTGTGCAGTCATCCTTCCGGAGTCACCTAGTGCAG”, the binding signal was 8620 fluorescence intensity (a.u.).

As for “TTCCTTGTCCGTAGTGTTCTTCCCGAAGTTCTTGATTGATCGGAGTCACCTAGTGCAG”, the binding signal was 8400 fluorescence intensity (a.u.).

For the sequence “ACCCCTACAAGTTTAAGAACCGCCCGTACACTTTACTTAACGGAGTCACCTAGTGCAG”, the binding signal is 9730 fluorescence intensity (a.u.).

As to “GATTATTTGCTTTACGGTTTTTTAAAAAAATTTCTTCATACGGAGTCACCTAGTGCAG”, the binding signal was 9590 fluorescence intensity (a.u.).

For the sequence “CTTTCCTTGCGCTGTTCTTCGCTTCATCCATCCATCAGCTCGGAGTCACCTAGTGCAG”, the binding signal was 10800 fluorescence intensity (a.u.).
